These are yes or no findings as the source states them, for the method shown. Binding seen in cells or lysates may run through a third protein. Here binding means that the protein was enriched with, or labelled near, the bait; the list need not be complete.

By UniProt entry, the sequences of proteins in these tests, tags left out.
UniProt Q96J02: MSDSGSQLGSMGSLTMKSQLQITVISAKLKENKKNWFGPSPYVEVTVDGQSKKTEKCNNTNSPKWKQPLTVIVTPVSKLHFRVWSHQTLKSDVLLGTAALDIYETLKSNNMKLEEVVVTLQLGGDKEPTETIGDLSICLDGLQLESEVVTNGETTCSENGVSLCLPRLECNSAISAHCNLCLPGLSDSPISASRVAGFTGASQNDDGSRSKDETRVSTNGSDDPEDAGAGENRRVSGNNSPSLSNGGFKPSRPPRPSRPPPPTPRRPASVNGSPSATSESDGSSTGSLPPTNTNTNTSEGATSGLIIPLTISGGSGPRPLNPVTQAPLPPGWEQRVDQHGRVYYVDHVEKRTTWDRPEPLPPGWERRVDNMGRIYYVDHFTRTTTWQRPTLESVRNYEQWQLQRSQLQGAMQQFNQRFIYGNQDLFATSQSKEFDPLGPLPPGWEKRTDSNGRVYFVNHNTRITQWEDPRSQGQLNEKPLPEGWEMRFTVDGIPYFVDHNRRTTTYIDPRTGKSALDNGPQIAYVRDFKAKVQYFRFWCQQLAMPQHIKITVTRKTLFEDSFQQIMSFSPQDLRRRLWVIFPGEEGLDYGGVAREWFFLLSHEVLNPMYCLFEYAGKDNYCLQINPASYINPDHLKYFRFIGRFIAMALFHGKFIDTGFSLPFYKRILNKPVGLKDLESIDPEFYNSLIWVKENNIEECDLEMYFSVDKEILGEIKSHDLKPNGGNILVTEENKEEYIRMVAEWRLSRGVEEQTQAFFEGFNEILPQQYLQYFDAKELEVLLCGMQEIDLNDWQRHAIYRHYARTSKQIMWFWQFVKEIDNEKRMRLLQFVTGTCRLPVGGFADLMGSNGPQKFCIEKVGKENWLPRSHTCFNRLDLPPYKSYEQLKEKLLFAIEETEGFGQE
UniProt P16403: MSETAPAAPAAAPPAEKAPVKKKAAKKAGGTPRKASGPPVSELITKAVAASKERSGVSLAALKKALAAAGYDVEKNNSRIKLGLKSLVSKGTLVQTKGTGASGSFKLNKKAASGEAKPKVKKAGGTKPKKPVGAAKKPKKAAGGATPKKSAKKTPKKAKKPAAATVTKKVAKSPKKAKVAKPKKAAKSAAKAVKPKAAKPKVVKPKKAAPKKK

For the test, the target named is ITCH (human (endogenous in MDA-MB-231)) (UniProt Q96J02). Nature of the test: affinity purification with mass spectrometry; IP with anti-ITCH antibody (BD Biosciences) and protein G beads from MDA-MB-231 lysate (50 mg total protein; 20 mM Tris-HCl pH 7.3, 300 mM KCl, 0.5% Triton); SDS-PAGE bands excised, digested, LC-MS/MS; unspecific mouse IgG as control.

As to “linker histone protein H1.2 (from UniProt P16403 1-213)”, the binding entry is “binds”.

(Values after paper PMC6344871.)
